Measurements published in PubChem BioAssay AID624297 (National Center for Advancing Translational Sciences (NCATS), 2012).
Screen size: about 340,000 compounds; about 6,200 (1.8%) were called active. The shares of active, inactive and inconclusive entries below differ from those in the screen. The call rests on the fitted dose curve; in most records, active means well fitted activation curve with a large enough effect; inconclusive means small, poorly fitted or top-dose-only effect; inactive means no such curve, though single readings can be large or run the other way. Where the call is inconclusive, the potency comes from a doubtful curve fit.

Experiment: A quantitative high throughput screen for small molecules that induce DNA re-replication in SW480 colon adenocarcinoma cells. Further: nearly all actives have a fitted effect of over 55% in size. On re-replication activation: % of control where 0% means no effect.
Details: Hoechst DNA content imaging, 48 h; re-replication activation: at 46.1 µM (top of the series) unless noted
Procedure, shortened: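 SW480 cells exposed to compounds for 48 hr at 37 C, 5% CO2, then Hoechst-stained 40 min. Nuclear DNA content imaged by fluorescence scanning (405 nm excitation, 500-530 nm emission); re-replication scored as increased high-intensity nuclei.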
Potency means the concentration at half of the fitted maximal effect.

Row | Compound | re-replication activation | Potency
1 | CCOC(=O)c1ccc2nc(Nc3nc4ccc(F)cc4s3)sc2c1 | inactive: 1.47% | –
2 | CCOC(=O)CN(C(=O)COC(=O)C1(c2ccccc2)CC1)c1ccc(F)cc1 | – | inconclusive: 2.91 µM [activator, full curve, poor fit]
3 | Clc1ccc(/C=N/Nc2nc(Cl)nc3ccccc23)cc1 | – | inconclusive: 23.1 µM [activator, single point]
4 | COc1ccc2ccccc2c1CNC(C)c1ccccc1 (centres undefined) | – | inconclusive: 29.1 µM [activator, single point]
5 | CC(C)CCN(N=O)[C@@H](Cc1ccccc1)CN(N=O)[C@@H](Cc1ccccc1)CN(C)N=O | inactive: 3.45% | –
6 | COc1ccccc1NS(=O)(=O)c1ccc2c(c1)CCN2C(=O)CCC(=O)O | inactive: -0.238% | –
7 | Cc1nc(N2CCN(c3ccccc3O)CC2)c2c(-c3ccccc3)csc2n1 | – | inconclusive: 23.1 µM [activator, single point]
8 | CCOC(=O)c1sc(NC(=O)c2ccco2)nc1-c1ccccc1 | – | inconclusive: 0.82 µM [activator, full curve, poor fit]
9 | CCOC(=O)N1CCN(C(=O)C2CCN(Cc3cccc(OCc4ccccc4)c3)CC2)CC1 | inactive: 2.9% | –
10 | CCc1ccc(NC(=O)C2(c3ccccc3)CC2(Cl)Cl)cc1 (centres undefined) | – | inconclusive: 18.4 µM [activator, single point]
11 | Cc1cc(OCC(O)CN2C(C)CCCC2C)ccc1C(C)C (centres undefined) | – | inconclusive: 29.1 µM [activator, single point]
12 | O=c1[nH]c(-c2ccccn2)cc2ccccc12 | – | inconclusive: 29.1 µM [activator, partial curve, poor fit]
13 | Cc1ccc(S(=O)(=O)Nc2ccc(Br)cc2/C=N/n2cnnc2)cc1 | inactive: 10.3% | –
14 | COc1ccc(/C=C(\C#N)C(=O)NCc2ccccc2)cc1O | – | inconclusive: 6.51 µM [activator, single point]
15 | CC1=NOC(=O)/C1=C\c1ccc(-c2cccc(Cl)c2)o1 | – | inconclusive: 29.1 µM [activator, single point]
16 | O=C(Nc1cc(S(=O)(=O)Nc2ccc(Cl)cc2)ccc1N1CCCCC1)c1ccc(F)cc1 | – | inconclusive: 18.4 µM [activator, single point]
17 | Cc1nc(N2CCCCC2)c2c(C)c(C(=O)Nc3ccc4c(c3)OCCO4)sc2n1 | inactive: -18.6% | –
18 | N=C(N)SCc1ccc(Cl)cc1Cl | – | inconclusive: 18.4 µM [activator, single point]
19 | CCOC(=O)C1CCN(C(=O)Nc2cccc(OC)c2)CC1 | – | inconclusive: 16.4 µM [activator, partial curve, poor fit]

Three compounds out of the list, arranged by number of heavy atoms, smallest number first:
Row | Compound | re-replication activation | Potency
18 | N=C(N)SCc1ccc(Cl)cc1Cl | – | inconclusive: 18.4 µM [activator, single point]
7 | Cc1nc(N2CCN(c3ccccc3O)CC2)c2c(-c3ccccc3)csc2n1 | – | inconclusive: 23.1 µM [activator, single point]
17 | Cc1nc(N2CCCCC2)c2c(C)c(C(=O)Nc3ccc4c(c3)OCCO4)sc2n1 | inactive: -18.6% | –
